PubChem BioAssay AID493246 | Drosophila RNAi Screening Center – 2011
Test: 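Genes fly cells need to grow and stay alive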 (primary screen). Cell system: Drosophila Kc and S2R+ cells. Knock-down reagent: long dsRNA against Drosophila genes. Detection: 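Cell number per well after knock-down, printed as raw plate values; calls were based on per-plate z-scores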. Reading the numbers: Kc cell number and S2R+ cell number: higher = more cells remaining. Hit rule: 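Counted as a hit if cell number falls by a z-score of at least 3 within its plate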.
The screen tested about 21,000 reagents; this is an unselected part of those with a known target gene and a result. Of all reagents, 429 (2%) got an active call. 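Values are raw and not normalised between plates; calls rest on per-plate z-scores that were not deposited.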 The numbers tell different reagents against one gene apart. A plus sign joins genes that one reagent is predicted to hit. Not stated in the record: the amount of reagent, the time to read-out.

| Gene | dsRNA no. | Kc cell number, rep 1 | Kc cell number, rep 2 | S2R+ cell number, rep 1 | S2R+ cell number, rep 2 | outcome |
| --- | --- | --- | --- | --- | --- | --- |
| CR11386 + CR33222 | 1 | 1.39e6 | 1.41e6 | 1.02e6 | 1.12e6 | inactive |
| CG32647 | 1 | 1.55e6 | 1.50e6 | 1.04e6 | 1.08e6 | inactive |
| CG32647 | 2 | 1.52e6 | 1.44e6 | 9.40e5 | 1.05e6 | inactive |
| CG34126 | 1 | 1.59e6 | 1.59e6 | 1.21e6 | 1.36e6 | inactive |
| CG13297 | 1 | 1.61e6 | 1.56e6 | 1.25e6 | 1.28e6 | inactive |
| CG13850 | 1 | 1.49e6 | 1.57e6 | 1.14e6 | 1.23e6 | inactive |
| COX6AL2 | 1 | 1.59e6 | 1.64e6 | 1.24e6 | 1.39e6 | inactive |
| spir | 1 | 1.55e6 | 1.66e6 | 1.32e6 | 3.32e5 | inactive |
| CG6565 | 1 | 1.41e6 | 1.58e6 | 1.44e6 | 1.54e6 | inactive |
| cue | 1 | 1.57e6 | 1.47e6 | 1.22e6 | 1.10e6 | inactive |
| Nplp1 | 1 | 1.39e6 | 1.47e6 | 1.10e6 | 1.08e6 | inactive |
| Bbd | 1 | 1.68e6 | 1.61e6 | 1.21e6 | 1.41e6 | inactive |
| BigH1 | 1 | 1.42e6 | 1.49e6 | 1.25e6 | 1.26e6 | inactive |
| Ssl | 1 | 1.54e6 | 1.59e6 | 1.27e6 | 1.37e6 | inactive |
| Hers | 1 | 1.48e6 | 1.56e6 | 1.04e6 | 1.21e6 | inactive |
| Hers | 2 | 1.42e6 | 1.44e6 | 1.06e6 | 1.14e6 | inactive |
| ng4 | 1 | 1.57e6 | 1.56e6 | 1.13e6 | 1.23e6 | inactive |
| CG4576 | 1 | 1.36e6 | 1.31e6 | 1.07e6 | 1.23e6 | inactive |
| mtg | 1 | 1.67e6 | 1.77e6 | 1.40e6 | 1.57e6 | inactive |
| CG14989 | 1 | 1.55e6 | 1.58e6 | 1.28e6 | 1.11e6 | inactive |
| Tpc2 | 1 | 1.65e6 | 1.57e6 | 1.49e6 | 1.65e6 | inactive |
| CG4194 | 1 | 5.12e5 | – | 8.09e5 | – | inactive |
| CG30389 | 1 | 1.41e6 | 1.47e6 | 8.32e5 | 9.76e5 | inactive |
| CG30389 | 2 | 1.49e6 | 1.51e6 | 1.21e6 | 2.72e5 | inactive |

Only “S2R+ cell number, rep 1” (4 entries from above):
ng4 = 1.13e6
CG4576 = 1.07e6
mtg = 1.40e6
CG14989 = 1.28e6
